PubChem BioAssay AID743121 | NCATS – 2013
This is a random part of about 26,000 reagents tested. 167 of them (0.63%) count as active. 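Calls are per gene from RSA p-values that are not deposited; an individual active-marked siRNA can sensitise only weakly.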 Entries without a mark were called inactive. Not all columns of the deposit are shown. No sequences are given here.

Aim: 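Partners whose loss is lethal together with topoisomerase I blockade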 (primary screen)
Cells: MDA-MB-231 cells, a human breast cancer line
Reagent: single siRNA against human genes, 20 nM siRNA (0.8 pmol per well)
Timing: 120 h (drug added 48 h after transfection, read 72 h later)
Challenge: camptothecin 20 nM (about EC30) for 72 h; vehicle 0.1% DMSO in parallel plates
Measurement: 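CellTiter-Glo ATP signal, scaled to control siRNA as percent viability; sensitisation given as log2 of untreated divided by camptothecin-treated viability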
Reading the numbers: log2 vehicle/camptothecin viability: higher = stronger sensitisation to camptothecin; viability with camptothecin: higher = more viable cells
Active means: 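Each gene scored by redundant siRNA activity (RSA) over its individual siRNA ratios; a gene is called active at p < 0.001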

no.	target gene	PubChem SID	log2 vehicle/camptothecin viability	viability with camptothecin (% of control)
1	USP42 (ubiquitin specific peptidase 42)	SID164543200	-0.35	99.2
2	USP42 (ubiquitin specific peptidase 42)	SID164543202	-0.0672	21.2
3	USP42 (ubiquitin specific peptidase 42)	SID164543204	-0.162	52.5
4	USP42 (ubiquitin specific peptidase 42)	SID164543207	-0.0485	100
5	E2F4 (E2F transcription factor 4)	SID164362484	-0.491	99.6
6	E2F4 (E2F transcription factor 4)	SID164362485	-0.361	108
7	E2F4 (E2F transcription factor 4)	SID164362486	-0.191	77.5
8	E2F4 (E2F transcription factor 4)	SID164362487	-0.25	116
9	GPRASP2 (G protein-coupled receptor associated sorting protein 2)	SID164562218	-0.0766	120
10	GPRASP2 (G protein-coupled receptor associated sorting protein 2)	SID164562219	0.428	36.9
11	GPRASP2 (G protein-coupled receptor associated sorting protein 2)	SID164562221	-0.14	102
12	GPRASP2 (G protein-coupled receptor associated sorting protein 2)	SID164562223	-0.184	82.2
13	CLEC4F (C-type lectin domain family 4 member F)	SID164579810	-0.0474	77.8
14	CLEC4F (C-type lectin domain family 4 member F)	SID164579811	0.126	76
15	CLEC4F (C-type lectin domain family 4 member F)	SID164579813	0.701	44.7
16	CLEC4F (C-type lectin domain family 4 member F)	SID164579814	0.225	105
17	NRL (neural retina leucine zipper)	SID164378505	-0.204	125
18	NRL (neural retina leucine zipper)	SID164378507	-0.0966	93.4
19	NRL (neural retina leucine zipper)	SID164378508	-0.14	109
20	WIPF2 (WAS/WASL interacting protein family member 2)	SID164574385	-0.161	92.6
21	WIPF2 (WAS/WASL interacting protein family member 2)	SID164574386	0.0583	81.8
22	WIPF2 (WAS/WASL interacting protein family member 2)	SID164574388	-0.488	45.5
23	FKBP1B (FKBP prolyl isomerase 1B)	SID164364889	-0.0163	94.3
24	FKBP1B (FKBP prolyl isomerase 1B)	SID164364891	0.954	22.9
25	FKBP1B (FKBP prolyl isomerase 1B)	SID164364892	-0.143	40.2
26	SNRK (SNF related kinase)	SID164481022	-0.0356	112
27	SNRK (SNF related kinase)	SID164481024	-0.109	58.3
28	SNRK (SNF related kinase)	SID164481027	-0.432	88.3
29	SNRK (SNF related kinase)	SID164481028	-0.585	66.3
30	RNF20 (ring finger protein 20)	SID164489297	-0.0429	102
31	RNF20 (ring finger protein 20)	SID164489298	-0.344	137
32	RNF20 (ring finger protein 20)	SID164489300	0.394	50.7
33	RNF20 (ring finger protein 20)	SID164489301	-0.235	118
34	C8A (complement C8 alpha chain)	SID164355943	-0.345	116
35	C8A (complement C8 alpha chain)	SID164355948	-0.00648	75.6
36	C8A (complement C8 alpha chain)	SID164355950	0.038	52.4
37	C8A (complement C8 alpha chain)	SID164355951	0.368	56.7
38	GATA2 (GATA binding protein 2)	SID164366097	-0.487	76.1
39	GATA2 (GATA binding protein 2)	SID164366099	0.0301	46
40	GATA2 (GATA binding protein 2)	SID164366100	-0.154	82
41	GATA2 (GATA binding protein 2)	SID164366102	-0.107	80.4
42	IL23R (interleukin 23 receptor)	SID164575356	0.153	91.2
43	IL23R (interleukin 23 receptor)	SID164575357	-0.251	87.4
44	IL23R (interleukin 23 receptor)	SID164575360	0.0386	76.6
45	IL23R (interleukin 23 receptor)	SID164575364	-0.0234	96.6
46	MID1 (midline 1)	SID164375560	0.000869	91.2
47	MID1 (midline 1)	SID164375561	0.0522	72.6
48	MID1 (midline 1)	SID164375570	-0.0853	90.3
49	MID1 (midline 1)	SID164375573	-0.0648	85.9

An excerpt from the list above, as a working copy:
no.	target gene	PubChem SID	log2 vehicle/camptothecin viability	viability with camptothecin (% of control)
4	USP42 (ubiquitin specific peptidase 42)	SID164543207	-0.0485	100
5	E2F4 (E2F transcription factor 4)	SID164362484	-0.491	99.6
6	E2F4 (E2F transcription factor 4)	SID164362485	-0.361	108
